We go through one molecule from article doi:10.1101/2020.06.30.176701 (bioRxiv, 2020).

These are yes or no findings as the source states them, for the method shown. Some results given as binding are weak or reduced against the parent protein; the word gives no strength.

In this test the target is T1, archaeal ribosomal P-stalk complex aP0•(aP1•aP1)3 (Pyrococcus horikoshii) (UniProt O74109+O57705).
T1 sequence 1: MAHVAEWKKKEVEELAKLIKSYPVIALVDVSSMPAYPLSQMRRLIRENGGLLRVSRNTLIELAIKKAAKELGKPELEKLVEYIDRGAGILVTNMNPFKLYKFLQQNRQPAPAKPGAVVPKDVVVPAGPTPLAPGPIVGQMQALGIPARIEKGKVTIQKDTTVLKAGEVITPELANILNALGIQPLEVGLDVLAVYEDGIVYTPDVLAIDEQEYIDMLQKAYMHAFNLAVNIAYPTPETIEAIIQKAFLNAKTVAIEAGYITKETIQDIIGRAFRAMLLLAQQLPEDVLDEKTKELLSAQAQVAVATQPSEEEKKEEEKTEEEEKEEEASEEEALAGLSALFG
T1 sequence 2: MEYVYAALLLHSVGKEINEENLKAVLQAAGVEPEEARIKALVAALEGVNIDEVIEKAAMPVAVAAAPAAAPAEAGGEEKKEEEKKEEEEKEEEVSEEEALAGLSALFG
The test can be described thus: native gel or EMSA.

B1: archaeal elongation factor 2 (aEF2) of Pyrococcus furiosus (natural protein, UniProt P61877 1-732, looked up)
chain: MGRREEMIAKIKELMLQPERIRNIGIAAHIDHGKTTLSDNLLAGAGMISEELAGKQLVLDFDEQEQARGITINAANVSMVHNYEGKDYLINLIDTPGHVDFGGDVTRAMRAIDGVIIVVDAVEGVMPQTETVVRQALREYVKPVLFINKVDRLIRELKLTPQQMMERFSKIIMDVNRLIQRYAPEEYKKKWMVRVEDGSVAFGSAYYNWALSVPFMQRTGVKFNEIIDLTLKGDNKTLRQRAPLHVVVLDMVVRHLPSPIEAQKYRIPHLWQGDINSKIGQAMLNCDPKGKMVMVITKIIIDKHAGEVATGRVWSGTVRSGQEVYLINSKRKGRIQQVGIYMGPERINMEAVPAGNIVAVTGLRDAMAGETVAEEQIEPFEALHYVSEPVVTVAIEAKNVKDLPRLIEALRQLAKEDPTLHVKIDEETGQHLLSGMGELHLEVKLYKLQKDWGIEVDVSEPIVVYRESITKPSPIVEGKSPNKHNRFYVVVEPMPDEIYQAIKEGIIPEGRVKDPKAVAKKLAELGMDYDIARGVVDIYNGNMFLDNTKGIQYLNEVMDLLIDGFHQAMDEGPLAKEPVMKVIVRLVDAQVHEDNVHRGPAQIYPAIRTAIHCAMMKAGPVLYEPYQKVIINIPYEYMGAVSREISQRRGQLIDMRQEGEVMTIIAEAPVAEMFGFAGAIRSATSGRALWSTEHAGFKRVPNELAQQIIRQIRQRKGLDPNPPTEKDVCPLF
For the molecule B1, the binding entry is “binds”.
